{
  "source": "patent US10086034B2",
  "about": "“Compositions and methods for inducing urinary voiding and defecation” (Dignify Therapeutics, LLC, priority 2013, dated 2018)",
  "key": {"[1]": {"system": "bladder of anesthetized acutely spinalized female rats", "assay": "Bladder contractility: isovolumetric bladder pressure recording in anesthetized acutely spinalized rats", "type": "in vivo, Sprague Dawley rats", "details": "for duration of action (time for bladder pressure to return to within 5 mmHg of baseline) / time to peak bladder pressure response: i.v.; for time to peak bladder pressure response: all doses studied; for peak bladder pressure response compared to vehicle: Bonferroni post test", "experimental": "(§1) General: In vivo studies were performed in anesthetized, acutely spinalized (T9-10 level) rats (N=37) or spinally intact (N=3) rats. Adult female Sprague Dawley rats (Charles River, N.C.; 250-300 g) were housed at an AAALAC approved facility in cages (3/cage) with free access to water and food in a colony room that was maintained on a 12 hr/12 hr light/dark cycle 1-2 weeks before the experiment. Rats were anesthetized with urethane (1.2-1.4 g/kg subcutaneous injection). Surgical procedures were then performed with the addition of isoflurane anesthesia (0.05-1.5% in O2) as the full anesthetic effect of urethane takes about 1-2 hrs.\n(§2) A catheter filled with heparinized saline (50 unit/ml) was inserted into the carotid artery and connected to a pressure transducer for measurement of blood pressure and heart rate. A catheter was inserted into the jugular vein for intravenous (i.v.) administration of drugs. In order to transect the spinal cord, the skin and muscle on the dorsal side at the level of the lower thoracic vertebrae were incised, and the spinal cord was carefully exposed by a laminectomy and transected at the T8-T10 spinal level. Gelfoam was placed at the incision site and the muscle and skin overlying the vertebrae were closed with wound clips. The spinal cord was cut at least 60 min before starting the experimental protocol.\nBladder Contractility: For isovolumetric recordings of bladder pressure a saline-filled polyethylene tubing with a flared tip (PE 50®) catheter was inserted into the bladder and secured in place at the dome. This catheter was used to slowly infuse saline (0.2-0.3 ml/min by an infusion pump (PHD2000 infusion, Harvard Apparatus, Holliston, Mass.) to determine the bladder capacity. The bladder capacity was determined as the volume necessary to fill the bladder to the leak point pressure (i.e. volume required to produce voiding). The bladder was then emptied, the external urethra occluded and the bladder filled to 70% capacity. This method produced a stable baseline pressure in which drug induced changes in bladder contractility could be measured. Peak pressure responses, time to peak, and time to return to near baseline values (within 5 mmHg of baseline; i.e. duration of action) after vehicle and drug administration were measured.\n(§3) Dosing: Responses to saline i.v. were given to ensure stable baseline pressures and lack of response to saline (vehicle control for DTI-100) at the start of each protocol and periodical throughout the experiment. DTI-100 was given in dose range of 0.01-100 μg/kg. The NK1R antagonist, Spantide I (solubilized in saline) and NK2R antagonist GR159897 (solubilized at 50 mM in DMSO and then diluted in saline) were given at a 1 mg/kg dose. Neurokinin A (NKA) and (betaAla8)NKA(4-10) were given at doses 1-100 μg/kg. Additional routes of drug administration explored included, intramuscular, subcutaneous, and sublingual. [Lys5,MeLeu9,Nle10]-NKA(4-10) (SEQ ID NO: 1) or “DTI-100”, Spantide I, GR159897, Neurokinin A, and (BetaAla8)NKA(4-10) were obtained from TOCRIS R&D SYSTEMS, Inc. (Minneapolis, Minn.).\n(§4) Data analysis: Data were examined qualitatively and quantitatively. The mean, standard deviation and standard error of the mean were calculated using MICROSOFT EXCEL. One way ANOVA tests were performed with PRISM 5 for WINDOWS (Graphpad Software, Inc., La Jolla, Calif.) and unpaired and paired t-tests were performed in EXCEL. P<0.05 was considered as statistically significant."}, "[2]": {"system": "colorectum of anesthetized acutely spinalized female rats", "assay": "Colorectal contractility: balloon catheter colorectal pressure in anesthetized rats", "type": "in vivo, Sprague Dawley rats", "experimental": "as §1, §2\nColorectal Contractility: Colorectal pressures were measured via a latex balloon catheter (length 3-5 cm) inserted (˜4 cm) into the distal rectal/colon region. The catheter was connected to a pressure monitoring system. The pressure in the balloon catheter was slowly increase to 15-20 mmHg by infusing saline (0.3-0.7 ml total volume) and this pressure was maintained throughout the study. This allowed drug induced changes in colorectal pressure to be monitored. Parameters measured include peak colorectal pressure response, duration of time above baseline activity (in the 1st 5 min after drug administration), area under the curve (measured during the 1st 5 min after drug administration) and the number of contractile events after vehicle and drug administration.\nas §3, §4"}, "Beagle dogs": {"system": "Beagle dogs", "assay": "On-demand urinary voiding and defecation in awake beagle dogs", "type": "in vivo", "details": "for Defecation (%) / Urination (%) / Defecation (# events) / Urination (# events): within 5 minutes following dosing; for Defecation (# events) / Urination (# events): 40 total doses"}, "[3]": {"details": "1 μg/kg i.v., all combined 40 injections"}},
  "note": "Part of at least one peptide drawing is inferred or uncertain, most often the ends. Some of these results come from one statement about several compounds together. Where no end group is shown, it is not given here. [ ]: non-standard residue; d: D form. βAla = NCCC(=O)O",
  "data": [
    {"molecule": "DSFV[βAla]LM-NH2 [(betaAla8)NKA(4-10), peptide agonist for NK2R, reference compound]", "values": [
      {"measurement": "duration of action (time for bladder pressure to return to within 5 mmHg of baseline)", "setting": "[1]", "result": "less than 10 min"},
      {"measurement": "time to peak bladder pressure response", "setting": "[1]", "result": "≤ 60", "unit": "s"}
    ]},
    {"molecule": "CCCC[C@H](NC(=O)[C@H](CC(C)C)N(C)C(=O)CNC(=O)[C@@H](NC(=O)[C@H](Cc1ccccc1)NC(=O)[C@H](CCCCN)NC(=O)[C@@H](N)CC(=O)O)C(C)C)C(N)=O", "note": "[DTI-100, [Lys5,MeLeu9,Nle10]-NKA(4-10)]", "values": [
      {"measurement": "bladder pressure response to repeated dosing", "setting": "[1]; 10 μg/kg i.v., 4 doses given at 1-2 hr intervals in the same rat", "result": "reproducible increases in bladder pressure"},
      {"measurement": "peak bladder pressure response compared to vehicle", "setting": "[1]; 0.01 and 0.1 μg/kg i.v.", "result": "not statistically different compared to vehicle"},
      {"measurement": "peak bladder pressure response compared to vehicle", "setting": "[1]; 1, 10 and 100 μg/kg i.v.", "result": "significant increase in bladder pressure compared to vehicle"},
      {"measurement": "duration (bladder pressure response)", "setting": "[1]; IM administration, 100 μg/kg, N=3", "result": "1133+22 sec"},
      {"measurement": "increase in bladder pressure", "setting": "[1]; IM administration, 100 μg/kg, mean+S.E., N=3", "result": "12.6+2.1 mmHg"},
      {"measurement": "duration of action (time for bladder pressure to return to within 5 mmHg of baseline)", "setting": "[1]", "result": "≤ 10", "unit": "min"},
      {"measurement": "time to peak bladder pressure response", "setting": "[1]", "result": "≤ 60", "unit": "s"},
      {"measurement": "bladder pressure (peak pressure response)", "setting": "[1]; increasing i.v. doses, acutely spinalized anesthetized female rats", "result": "dose related increase in bladder pressure"},
      {"measurement": "bladder pressure", "setting": "[1]; intramuscular, subcutaneous and sublingual injections, DTI-100 10-100 μg/kg, NKA 5-100 μg/kg", "result": "showed an increase in bladder pressure"},
      {"measurement": "increase in bladder pressure", "setting": "[1]; sublingual injection", "result": "10-25 mmHg"},
      {"measurement": "time to increase in bladder pressure after drug administration", "setting": "[1]; sublingual injection", "result": "≤ 2", "unit": "min"},
      {"measurement": "duration of action (percentage of time above threshold in the 1st 5 min after dosing)", "setting": "[2]; 0.1-100 μg/kg i.v.", "result": "increased in a dose related manner"},
      {"measurement": "colorectal pressure AUC (1st 5 min after drug administration) compared to vehicle", "setting": "[2]; 10 and 100 μg/kg i.v., Bonferroni post-test", "result": "significantly different compared to vehicle"},
      {"measurement": "time to increase in colorectal activity after drug administration", "setting": "[2]; i.v.", "result": "≤ 60", "unit": "s"},
      {"measurement": "colorectal activity", "setting": "[2]; i.v., both intact and acutely spinalized rats", "result": "increase in colorectal activity"},
      {"measurement": "colorectal pressure", "setting": "[2]; subcutaneous and sublingual injections, 10-100 μg/kg", "result": "produced an increase in colorectal pressure"},
      {"measurement": "defecation events within 10 minutes of administration", "setting": "Beagle dogs; [3]", "result": "twice"},
      {"measurement": "urination events within 10 minutes of administration", "setting": "Beagle dogs; [3]", "result": "once"},
      {"measurement": "Defecation (%)", "setting": "Beagle dogs; 1 μg/kg i.v.", "result": 5, "unit": "%"},
      {"measurement": "Urination (%)", "setting": "Beagle dogs; 1 μg/kg i.v.", "result": 3, "unit": "%"},
      {"measurement": "Defecation (# events)", "setting": "Beagle dogs; 1 μg/kg i.v.", "result": "2/40"},
      {"measurement": "Urination (# events)", "setting": "Beagle dogs; 1 μg/kg i.v.", "result": "1/40"},
      {"measurement": "time to defecation following dosing", "setting": "Beagle dogs; 10 μg/kg i.v.", "result": "2 to 5", "unit": "min"},
      {"measurement": "time to urination following dosing", "setting": "Beagle dogs; 10 μg/kg i.v.", "result": "1 to 3", "unit": "min"},
      {"measurement": "Defecation (%)", "setting": "Beagle dogs; 10 μg/kg i.v.", "result": 85, "unit": "%"},
      {"measurement": "Urination (%)", "setting": "Beagle dogs; 10 μg/kg i.v.", "result": 98, "unit": "%"},
      {"measurement": "Defecation (# events)", "setting": "Beagle dogs; 10 μg/kg i.v.", "result": "34/40"},
      {"measurement": "Urination (# events)", "setting": "Beagle dogs; 10 μg/kg i.v.", "result": "39/40"},
      {"measurement": "time to defecation following dosing", "setting": "Beagle dogs; 30 μg/kg i.v.", "result": "2 to 5", "unit": "min"},
      {"measurement": "time to urination following dosing", "setting": "Beagle dogs; 30 μg/kg i.v.", "result": "1 to 3", "unit": "min"},
      {"measurement": "Defecation (%)", "setting": "Beagle dogs; 30 μg/kg i.v.", "result": 98, "unit": "%"},
      {"measurement": "Urination (%)", "setting": "Beagle dogs; 30 μg/kg i.v.", "result": 98, "unit": "%"},
      {"measurement": "Defecation (# events)", "setting": "Beagle dogs; 30 μg/kg i.v.", "result": "39/40"},
      {"measurement": "Urination (# events)", "setting": "Beagle dogs; 30 μg/kg i.v.", "result": "39/40"},
      {"measurement": "share of doses followed by urination or defecation events", "setting": "Beagle dogs; 10 and 30 μg/kg i.v.", "result": "85-98%"},
      {"measurement": "rapid offset (voiding complete)", "setting": "Beagle dogs; i.v., beagle dogs", "result": "5 to 10", "unit": "min"},
      {"measurement": "rapid onset of voiding of urine and/or feces", "setting": "Beagle dogs; i.v., beagle dogs", "result": "1 to 3", "unit": "min"}
    ]}
  ]
}
